Test results: patent US11596167B2, “Formulas comprising optimised amino acid profiles” (N.V. Nutricia, priority 2014, dated 2023)

Test system: term infants
Assay: Indicator amino acid oxidation (IAAO) method: essential amino acid requirement (breakpoint) in formula-fed infants
Format: in vivo, human
Settings: for Recommended dietary intake mg/100 mL: breakpoint divided by volume intake 150 mL·kg^−1·d^−1, times 100, mg amino acid per 100 mL infant formula; for Recommended dietary intake range g/100 g protein: calculated for protein intake level 0.9-1.4 g/100 mL infant formula; for Recommended dietary intake (IAAO breakpoint) mg kg^−1 day^−1 / Breakpoint (requirement) estimated by IAAO: term infants, biphasic linear regression crossover model; for Recommended dietary intake (IAAO breakpoint) mg kg^−1 day^−1: postnatal age <28 days, amino acid based formula, breakpoint equals recommended intake; for Requirement expressed per 100 mL formula, range: with a 20% variation; for Recommended dietary intake converted into g/100 g protein: protein intake level 0.9-1.4 g/100 mL infant formula; for Breakpoint (requirement) estimated by IAAO: F13CO2 versus test amino acid intake; for Recommended dietary intake: of infant formula, from breakpoint and 150 mL·kg^−1·d^−1 volume intake

SMILES | Recommended dietary intake mg/100 mL | Recommended dietary intake range g/100 g protein | Recommended dietary intake (IAAO breakpoint) mg kg^−1 day^−1 | Requirement expressed per 100 mL formula, range | Recommended dietary intake converted into g/100 g protein | Requirement of infants with a 20% variation permitted (range with 20% variation (product-allowed variation)) | Breakpoint (requirement) estimated by IAAO | Recommended dietary intake
CC[C@H](C)[C@H](N)C(=O)O [Isoleucine, isoleucine] | 70 mg/100 mL | 5.0-7.8 g/100 g protein | 105 mg/kg/day | – | – | – | – | –
CC(C)C[C@H](N)C(=O)O [Leucine, leucine] | 93 mg/100 mL | 6.6-10.4 g/100 g protein | 140 mg/kg/day | – | – | – | – | –
CSCC[C@H](N)C(=O)O [Methionine, methionine] | 25 mg/100 mL | 1.8-2.8 g/100 g protein | 38 mg/kg/day | – | – | – | – | –
N[C@@H](Cc1ccccc1)C(=O)O [Phenylalanine, phenylalanine] | 39 mg/100 mL | 2.8-4.3 g/100 g protein | 58 mg/kg/day | 39-46 mg/100 mL | 2.8-4.3 g/100 g protein | 58-70 mg/kg per day | 58 mg/kg/day | –
C[C@@H](O)[C@H](N)C(=O)O [Threonine, threonine] | 45 mg/100 mL | 3.2-5.0 g/100 g protein | 68 mg/kg/day | 45-54 mg/100 mL | 3.2-5.0 g/100 g protein | – | 68 mg/kg/day | 45 mg/100 mL
N[C@@H](Cc1c[nH]c2ccccc12)C(=O)O [Tryptophan, tryptophan] | 10 mg/100 mL | 0.7-1.1 g/100 g protein | 15 mg/kg/day | 10-12 mg/100 mL | 0.7-1.1 g/100 g protein | – | 15 mg/kg/day | 10 mg/100 mL
CC(C)[C@H](N)C(=O)O [Valine, valine] | 73 mg/100 mL | 5.2-8.1 g/100 g protein | 110 mg/kg/day | – | – | – | – | –
